From paper PMC4908242, “Functional Characterization of a Small-Molecule Inhibitor of the DKK1-LRP6 Interaction” (ISRN Molecular Biology, 2012) come the findings set out here.

Amino acid sequences for entries named in this document (tags omitted). Residues count along the entry.
UniProt O75581, residues 20-1613: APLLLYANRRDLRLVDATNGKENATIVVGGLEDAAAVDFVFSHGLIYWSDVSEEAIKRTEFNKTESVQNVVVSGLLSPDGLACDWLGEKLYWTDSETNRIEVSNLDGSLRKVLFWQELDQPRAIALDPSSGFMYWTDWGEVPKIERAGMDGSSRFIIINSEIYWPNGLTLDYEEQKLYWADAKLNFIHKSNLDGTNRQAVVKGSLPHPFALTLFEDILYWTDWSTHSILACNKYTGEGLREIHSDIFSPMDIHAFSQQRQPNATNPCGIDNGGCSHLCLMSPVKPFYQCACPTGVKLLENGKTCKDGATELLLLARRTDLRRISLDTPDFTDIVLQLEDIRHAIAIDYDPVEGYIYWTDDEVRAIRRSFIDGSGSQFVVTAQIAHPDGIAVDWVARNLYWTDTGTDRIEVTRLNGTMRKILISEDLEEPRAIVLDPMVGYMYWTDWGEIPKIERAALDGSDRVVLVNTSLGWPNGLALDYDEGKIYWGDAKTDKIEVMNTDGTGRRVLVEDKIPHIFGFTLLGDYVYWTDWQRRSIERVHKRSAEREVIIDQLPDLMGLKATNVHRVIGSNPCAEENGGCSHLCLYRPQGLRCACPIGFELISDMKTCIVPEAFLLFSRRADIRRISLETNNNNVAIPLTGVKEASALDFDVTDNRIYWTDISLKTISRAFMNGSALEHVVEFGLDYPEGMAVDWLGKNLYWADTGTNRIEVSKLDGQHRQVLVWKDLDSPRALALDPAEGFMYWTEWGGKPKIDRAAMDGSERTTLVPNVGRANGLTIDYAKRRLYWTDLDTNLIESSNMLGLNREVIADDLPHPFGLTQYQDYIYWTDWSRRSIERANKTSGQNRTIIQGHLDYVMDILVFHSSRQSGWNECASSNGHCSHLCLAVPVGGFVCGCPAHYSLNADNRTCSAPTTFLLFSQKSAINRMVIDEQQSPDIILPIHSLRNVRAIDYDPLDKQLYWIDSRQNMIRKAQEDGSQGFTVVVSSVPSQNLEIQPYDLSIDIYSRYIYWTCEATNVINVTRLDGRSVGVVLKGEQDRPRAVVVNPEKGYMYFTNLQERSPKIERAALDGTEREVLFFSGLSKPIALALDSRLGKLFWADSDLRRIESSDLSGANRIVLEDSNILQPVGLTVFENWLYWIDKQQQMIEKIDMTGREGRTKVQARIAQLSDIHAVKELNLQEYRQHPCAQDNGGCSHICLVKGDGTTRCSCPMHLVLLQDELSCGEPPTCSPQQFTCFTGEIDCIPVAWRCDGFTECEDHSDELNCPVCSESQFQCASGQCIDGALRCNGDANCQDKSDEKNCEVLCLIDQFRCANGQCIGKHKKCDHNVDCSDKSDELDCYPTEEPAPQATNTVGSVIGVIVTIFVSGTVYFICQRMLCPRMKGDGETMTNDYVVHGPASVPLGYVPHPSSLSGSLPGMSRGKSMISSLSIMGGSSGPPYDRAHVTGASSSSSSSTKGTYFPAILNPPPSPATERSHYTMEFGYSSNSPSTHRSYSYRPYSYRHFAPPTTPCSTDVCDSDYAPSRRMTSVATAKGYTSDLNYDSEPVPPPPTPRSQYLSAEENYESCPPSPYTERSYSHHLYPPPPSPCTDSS

Results are given in words; binding and its absence hold for the method and conditions named. Some results given as binding are weak or reduced against the parent protein; the word gives no strength. Sequences can lack the tags named with a protein.

The target in this assay is full-length human LRP6 stably expressed on HEK293 cells (HEK293-LRP6) (human) (UniProt O75581). As to the kind of experiment: AP-DKK1 binding assay (alkaline phosphatase activity of cell-bound AP-DKK1); AP-DKK1 conditioned medium (20 mU/mL) on HEK293-LRP6 cells with increasing concentrations of NCI8642; AP activity in the cell lysate measured with AttoPhos substrate.

B1: Commercial purified recombinant human DKK1 (ligand, UniProt O94907 32-266, looked up)
chain: TLNSVLNSNAIKNLPPPLGGAAGHPGSAVSAAPGILYPGGNKYQTIDNYQPYPCAEDEECGTDEYCASPTRGGDAGVQICLACRKRRKRCMRHAMCCPGNYCKNGICVSSDQNHFRGEIEETITESFGNDHSTLDGYSRRTTLSSKMYHTKGQEGSVCLRSSDCASGLCCARHFWSKICKPVLKEGQVCTKHRRKGSHGLEIFQRCYCGEGLSCRIQKDHHQASNSSRLHTCQRH
notes: Dickkopf 1 (DKK1), human, commercial recombinant protein; Neither catalogue number nor construct limits are printed; also called Dickkopf 1; commercial recombinant DKK1; source: bought: R&D Systems, purified recombinant
Take B1: the binding result is recorded as “binds”.
